These are yes or no findings as the source states them, for the method shown. Binding seen in cells or lysates may run through a third protein. For part of these data: Binding can be weak; no strength is given. Blank lines part the entries; values can stand above or below the binder they belong to.
Assays:
[1] = target: OTUD6^C183A.FLAG.HA (Drosophila (endogenous locus, fly heads)); experiment: co-IP; anti-FLAG IP of OTUD6^C183A.FLAG.HA from Drosophila lysate, western detection
[2] = target: OTUD6^C183A.FLAG.HA (Drosophila (endogenous locus, fly heads)); experiment: co-IP; anti-FLAG IP of tagged OTUD6 and OTUD6^C183A (untagged OTUD6^C183A as control) from Drosophila lysate in the presence of cycloheximide, western for RPS7, RPL11 and eIF2α
[3] = target: OTUD6.FLAG.HA (Drosophila (endogenous locus)); experiment: as above

binding [1]: binds
B1: DIS3 (enzyme, UniProt Q9VC93 1-982)
chain: MQTLREFTRKTKRGNILKIVREHYLRDDIGCGSELCRECFQNEVYQLTSQHANKSTLFKFPHYLVLDTNVVLDQIDVLEEDVLRNVVVLTTVLNEVKHRSSAIYKRFNEIVHDRTRNFYVFVNEHHKETYADREPDETANDRNDRAIRLATKWYDDHLQASQSSKEFERSGKAATRVVLLTDDAANRAKAEAEGILVTTAAEYVKSLEDFPLLMDKLSHKTFDSEKNGLPQYPPHLSMKELLEGLRQNKLLQGTFQASRENYLEGTVNVEKFEKGILIQGRESLNRAVDGDLVAVELLPEAEWSAPSEIVLEEKNVYADEVPSEERAKDENEMLNQVRAAALSAERTPTGRIVGIVRRKWRQYCGILQPSLIEDTNRHIFVPADRKIPRIRIETRQAAMLQNQRIIVTIDTWPRNSRYPHGHFVRSLGPLGDMATENEVILLEHDVPHCKFSDEVLSFLPKMPWTITDEDYSKRVDLRDLYICSVDPPGCTDIDDALHCKELPNGNLEVGVHIADVSHFIRPGNALDMEAAARGTTVYLVGKRIDMVPELLSSNLCSLVGGVERFAFSCVWEVDNEANVLSKRFHKSVIKSKRAMTYEEAQNIIDDATQQNEIAKSLRNLNRLAKILKKRRMDNGALVLASPEIRFQVDSETHEPLEVEVKQMRETNSMVEEFMLLANITVAEHIATEFSECAVLRRHPRPPPTNFDPLVKSARYQGFQVDINSGLELSHSLDKCVKADNPYFNTMIRILTTRCMMQAVYFISGSLQKEEFFHYGLAAPIYTHFTSPIRRYSDIMVHRLLAASIGADSTYAQLLDRKSNEELCHNLNYRHKMAQYAGRASVALNTHLFFRGKEEDEEGYVLFVRKNALQVLIPKYGLEGTLYLKSDKDGKDGVERVKSEIVFTFNEEDHTQRCGDVVFHSFDPVTVRLSLDSSNVQHEKLIFRLVKPYIKGFSVETTTEGTDSQAVSAAPPSKKTKKDKKKK

binding [2]: no binding | binding [3]: no binding
B2: non-ubiquitinated RPS7 (protein, UniProt Q9VA91 1-194)
chain: MAIGSKIIKPGGSDPDDFEKSIAQALVELEANSDLKPYLRDLHITRAREIEFGSKKAVIIYVPIPQQKVFQKIQIILVRELEKKFSGKHVVVIAERKILPKPTRKARNPLKQKRPRSRTLTAVYDAILEDLVFPAEIVGKRIRVKLDGSQLVKVHLDKNQQTTIEHKVDTFTSVYKKLTGRDVTFEFPDNYLNV
